Results reported in patent publication US20090149339A1.
No constants are given. Whether binding was seen depends on the method and setting. Some entries that bind do so weakly or less than the wild type.

Columns and labels:
[1] = biological target: GST-NeDLG PDZ domain fusion protein (presynaptic protein sao102, neuroendocrine-dlg; PDZ domains 1-2 of 3) [GST: P08515]; assay: A/G assays (told in text)
[2] = biological target: GST-AF6 PDZ domain fusion protein (af-6 protein AA985-1077; PDZ domain 1 of 1) [GST: P08515]; assay: A/G assays (told in text)
[3] = biological target: GST-PSD95 PDZ domain fusion protein (human post-synaptic density protein 95 AA387-724; PDZ domains 1-3 of 3) (human) [GST: P08515]; assay: A/G assays (told in text)
[4] = biological target: GST-41.8 kD PDZ domain fusion protein (hypothetical 41.8 kD protein AA4-85; PDZ domain 1 of 1) [GST: P08515]; assay: A/G assays (told in text)
[5] = biological target: GST-NeDLG PDZ domain fusion protein (presynaptic protein sao102, neuroendocrine-dlg; PDZ domains 1-2 of 3) [GST: P08515]; assay: A assay
[6] = biological target: GST-AF6 PDZ domain fusion protein (af-6 protein AA985-1077; PDZ domain 1 of 1) [GST: P08515]; assay: A assay
[7] = biological target: GST-PSD95 PDZ domain fusion protein (human post-synaptic density protein 95 AA387-724; PDZ domains 1-3 of 3) (human) [GST: P08515]; assay: A assay
[8] = biological target: GST-41.8 kD PDZ domain fusion protein (hypothetical 41.8 kD protein AA4-85; PDZ domain 1 of 1) [GST: P08515]; assay: A assay

binding [1]: binds
binding [2]: binds
binding [3]: binds
binding [4]: binds
binding [5]: binds
binding [6]: binds
binding [7]: binds
binding [8]: binds
Binder: CAISGTSSDRGYGSPRYAEV (N-terminal biotin) [CLASP-4 C-terminal PL peptide AA3L-V, biotinylated]
